Measurements from PubChem BioAssay AID1347076 (National Center for Advancing Translational Sciences (NCATS), 2019).
The campaign covered roughly 400,000 compounds. About 13,000 (3.2%) were called active. Inconclusive results, whose numbers are uncertain, are shown with a selection of clear calls. Calls follow the shape of the dose curve; as a rule, active = well fitted cell-killing curve with a large enough effect; inconclusive = small, poorly fitted or top-dose-only effect, or effect the other way; inactive = flat fitted curve, though single readings scatter. Potencies beside an inconclusive call are fits to weak or partial responses and may not hold up.
% is scaled to controls: 0 for no effect and ±100 for the full control effect; potency is read from the fitted curve at half-maximal effect.

Assay: qHTS assay for MDR1-selective chemotherapeutics: Primary screen using the drug-selected MDR subline cells KB-V1; also: nearly all actives have a fitted effect of over 60% in size
Settings: KB-V1 MDR cells viability, CellTiter-Glo, 72 h; activity change, negative = cytotoxicity: at 46.1 µM (top of the series)
Outline: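 Potencies derive from concentration-effect curves fitted to normalized luminescence (CellTiter-Glo) of KB-V1 cells treated for 72 h at 37 degrees C in phenol-red-free DMEM containing 10% FBS.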
In the case of `COc1cc(OC)cc(C(=O)NNC(=O)CCc2nc3ccccc3c(=O)[nH]2)c1`, the Potency is reported as “inactive”. In the case of `Cc1ccc(Cn2ccc(NC(=O)c3noc4c3CCCC4)n2)cc1`, the Potency is reported as “inactive”. For `COCCCNC(=S)N1CCN(C(c2ccccc2)c2ccccc2)CC1`, the Potency was inconclusive: 16.4 µM [cytotoxic, partial curve, poor fit]. For `CCOc1cc(C(=O)OCC(=O)c2c[nH]c3ccccc23)ccc1OCC(=O)N1CCOCC1`, the Potency was “inactive”. For `CCCC(=O)Nc1ccc(C(=O)Nc2ccc([N+](=O)[O-])cc2OC)cc1`, the Potency was “inactive”. With `COc1ccc(CSc2ccc(S(=O)(=O)N3CCCC3)cn2)cc1F` the Potency was inconclusive: 29.1 µM [cytotoxic, single point]. For `COc1ccccc1NC(=O)c1ccc(-n2cccn2)nc1`, the Potency was inconclusive: 8.2 µM [cytotoxic, partial curve]. In the case of `COc1ccc(C)cc1Cn1c(S(C)(=O)=O)nc2ccccc21`, the Potency is reported as inconclusive: 29.1 µM [cytotoxic, single point]. With `CCC(Sc1nnc(C)n2c1cc1occc12)C(=O)Nc1ccccc1F` (centres undefined) the Potency was inconclusive: 29.1 µM [rising, single point]. For `COc1ccc(-c2cccc3c2C2CC3CCN2C(=O)OCc2ccccc2)cc1` (centres undefined), the Potency was “inactive”. In the case of `NS(=O)(=O)c1ccc(NC(=O)Nc2ccc(C(F)(F)F)cc2)cc1`, the Potency is reported as “inactive”. For `Cc1nc(-c2cccnc2)sc1C(=O)Nc1ccc(Cl)cc1`, the Potency was active: 18.4 µM. With `COc1cccc(NC(=O)Nc2cc(-c3cn4cccnc4n3)ccc2C)c1` the Potency was “inactive”. In the case of `Cn1cc(Br)c(C(=O)n2cc(Br)cn2)n1`, the Potency is reported as “inactive”. With `Cc1ccc2c(c1)C(SCC(=O)NCCc1ccccc1)CC1(CCCC1)O2` (centres undefined) the Potency was inconclusive: 29.1 µM [cytotoxic, single point]. For `CC1(C)CC(=O)C(Sc2ccccc2)=C(O)C1`, the Potency was inconclusive: 20.6 µM [rising, partial curve]. In the case of `COc1ccc(-c2nn(C)c(=O)c3ccccc23)cc1NC(=O)Cn1nc(-c2ccccc2)c2ccccc2c1=O`, the Potency is reported as inconclusive: 18.4 µM [cytotoxic, partial curve, poor fit]. In the case of `NC1=NC(=O)/C(=C\c2ccc(-c3ccc(Cl)cc3)o2)S1`, the Potency is reported as inconclusive: 11.6 µM [cytotoxic, partial curve, poor fit]. With `O=C(NCCO)C(=O)Nc1c2c(nn1-c1ccc(F)cc1)CSC2` the Potency was “inactive”. With `COc1ccc(C(CCNCc2ccc(OC(C)C)cc2)C(C)C)cc1` (centres undefined) the Potency was active: 14.6 µM. In the case of `C/C(=N\Nc1nc(N2CCCCC2)nc(N2CCOCC2)n1)c1ccccc1O`, the Potency is reported as active: 16.4 µM. For `Cc1cc(=O)n2[nH]c(N)c(N=Nc3ccccc3)c2n1`, the Potency was inconclusive: 29.1 µM [cytotoxic, single point]. For `CCOC(=O)c1cnn(-c2cc(C)c3ccccc3n2)c1N`, the Potency was “inactive”. For `Cc1ccc(S(=O)(=O)NCCCCCC(=O)Nc2ccccn2)cc1`, the Potency was inconclusive: 7.31 µM [cytotoxic, partial curve]. In the case of `O=C(Cn1[nH]c(=O)c2ccccc2c1=O)N1CCN(S(=O)(=O)c2ccc(Cl)cc2)CC1`, the Potency is reported as inconclusive: 29.1 µM [rising, single point]. With `Cc1cccc2c(=O)n(C(=O)c3ccccc3)c(N)nc12` the Potency was inconclusive: 25.9 µM [cytotoxic, partial curve, poor fit]. In the case of `Cc1cccc(-n2c(C)nc3cc(C(=O)NCc4ccc5c(c4)OCO5)ccc32)c1`, the Potency is reported as active: 16.4 µM. In the case of `CC1=Nc2ccccc2N=C(NC(=O)c2ccccc2)C1c1ccccc1` (centres undefined), the Potency is reported as inconclusive: 29.1 µM [cytotoxic, single point]. With `Cc1ccc(NC(=O)CCNS(=O)(=O)c2ccc3[nH]c(=O)oc3c2)cc1F` the Potency was inconclusive: 29.1 µM [rising, single point]. In the case of `Cc1ccc(S(=O)(=O)C2C(=O)N(C)C3(C)CC2c2ccccc2O3)cc1` (centres undefined), the Potency is reported as inconclusive: 11.6 µM [cytotoxic, partial curve]. In the case of `CCOCCOC(=O)C(C)Oc1ccc(Oc2nc(Cl)ccc2Cl)cc1` (centres undefined), the Potency is reported as inconclusive: 20.6 µM [rising, single point]. For `Cc1ccc(Cl)cc1N1CCN(C(=O)CSc2nnc3n2C(C)(C)Cc2ccccc2-3)CC1`, the Potency was active: 11.6 µM. With `CC(C)N1C/C(=C/c2ccsc2)C(=O)/C(=C/c2ccsc2)C1` the Potency was inconclusive: 23.1 µM [cytotoxic, single point]. For `Cc1cccnc1NC(=O)/C=C/c1ccc2c(c1)OCO2`, the Potency was inconclusive: 20.6 µM [cytotoxic, partial curve, poor fit]. In the case of `CSc1nsc(NC(=O)Cc2ccccc2)n1`, the Potency is reported as inconclusive: 16.4 µM [cytotoxic, single point]. With `CC1=C(C(=O)Nc2ccc(CC(=O)NCc3ccc(OC(C)C)cc3)cc2)SCCO1` the activity change, negative = cytotoxicity was inconclusive: -87.9%. For `Cc1nn(-c2nc3ccccc3n2Cc2ccccc2)c2c1C(=O)CC(C)(C)C2`, the Potency was active: 20.6 µM. With `O=C(Nc1cccc(Cl)c1)c1c(NC(=O)C(F)(F)F)sc2c1CCCC2` the Potency was active: 11.6 µM. With `Cc1sc2nc(SCC(=O)N(C)c3ccccc3)n(C)c(=O)c2c1C` the Potency was inconclusive: 1.46 µM [cytotoxic, full curve, poor fit]. In the case of `COc1ccc(/C=C(\NC(=O)c2cccs2)C(=O)Nc2ccccc2C)cc1OC`, the Potency is reported as inconclusive: 8.2 µM [cytotoxic, partial curve, poor fit]. With `COC(=O)c1cc(S(=O)(=O)N2CCN(c3ccc(C(C)=O)cc3)CC2)cn1C` the Potency was “inactive”. In the case of `COc1cc(NC(=O)CN(C)Cc2ccc(OC(F)F)cc2)c(C)cc1[N+](=O)[O-]`, the Potency is reported as inconclusive: 2.06 µM [cytotoxic, partial curve, poor fit]. With `O=C(Nc1cccc(F)c1)C1CCCN(C(=O)c2ccc(Cl)cc2)C1` (centres undefined) the Potency was inconclusive: 16.4 µM [cytotoxic, single point]. For `Cc1[nH]c2ccc(-c3n[nH]c(=S)n3C)cc2c1C`, the Potency was inconclusive: 4.11 µM [cytotoxic, full curve, poor fit]. In the case of `COc1ccc(CCNCc2c(C(=O)O)c(C)n(Cc3ccccc3C)c2C)c(OC)c1`, the Potency is reported as inconclusive: 5.8 µM [rising, partial curve]. With `CC(C)(C)NC[C@H](O)COc1nsnc1N1CCOCC1` the Potency was inconclusive: 16.4 µM [cytotoxic, single point]. With `CC(=O)NCCc1nc2cc(NC(=O)c3ccccc3C)ccc2n1C` the Potency was inconclusive: 13 µM [rising, partial curve, poor fit]. With `CC(=O)c1c(C)[nH]c(C(=O)OCc2cccc(C)c2)c1C` the Potency was inconclusive: 9.2 µM [cytotoxic, partial curve, poor fit]. With `Cc1ccc(S(=O)(=O)N2CCCC2CNC(=O)c2ccc(F)c(F)c2)cc1` (centres undefined) the Potency was inconclusive: 16.4 µM [cytotoxic, partial curve]. In the case of `COc1ccc(-c2cc(-c3ccccc3)nc(SCC(=O)Nc3ncc(C)s3)c2C#N)cc1`, the Potency is reported as active: 9.2 µM. With `CC(=O)N(Cc1nc2sc(C)c(C)c2c(=O)[nH]1)C1CCCC1` the Potency was inconclusive: 20.6 µM [cytotoxic, partial curve]. In the case of `CCOc1ccccc1N(C)C(=O)Cn1cnc2sc(C)c(S(=O)(=O)N3CCC(C)CC3)c2c1=O`, the Potency is reported as “inactive”. In the case of `NS(=O)(=O)c1ccc(S(=O)(=O)N2CCCC(c3ccccc3)C2)cc1` (centres undefined), the Potency is reported as inconclusive: 20.6 µM [cytotoxic, single point]. With `Cc1cc(O)c(-c2cc(C(=O)Nc3cccnc3)[nH]n2)cc1C` the Potency was inconclusive: 9.2 µM [rising, partial curve]. In the case of `Cc1nn(C)c(C(=O)N2CCN(C(=O)c3ccco3)CC2)c1[N+](=O)[O-]`, the Potency is reported as inconclusive: 29.1 µM [rising, single point]. With `O=C(Cn1c(=O)oc2ccccc21)NCc1cccc(Cl)c1` the Potency was “inactive”. In the case of `CN(Cc1ccn[nH]1)C(=O)C1CCC(=O)N(Cc2cccc(C(F)(F)F)c2)C1` (centres undefined), the Potency is reported as inconclusive: 23.1 µM [rising, single point]. For `COc1ccc(-n2sc3ccc(F)cc3c2=O)cc1`, the Potency was inconclusive: 29.1 µM [cytotoxic, single point]. In the case of `Cc1cccc(-n2ncc3c(N4CC(C)CC(C)C4)ncnc32)c1` (centres undefined), the Potency is reported as “inactive”. For `COc1cc(C(=O)N/N=C(\C)Cc2ccccc2)cc(OC)c1OC`, the Potency was “inactive”. For `COc1cccc(NS(=O)(=O)c2ccc3c(c2)N(C(C)=O)CCS3)c1`, the Potency was inconclusive: 14.6 µM [cytotoxic, partial curve, poor fit]. For `COC(=O)CSc1nc(C)cc(C(F)(F)F)c1C#N`, the Potency was “inactive”. In the case of `CN1OC(c2ccccc2)=C(CO)C1c1ccccc1` (centres undefined), the Potency is reported as inconclusive: 0.92 µM [rising, full curve]. For `O=C(O)c1c2c(nc3ccccc13)/C(=C/c1ccc(OC(F)F)cc1)CCC2`, the Potency was inconclusive: 29.1 µM [rising, partial curve, poor fit]. For `COc1cccc(N/C(=N/C(=S)Nc2ccc(C)cc2C)Nc2nc(C)cc(C)n2)c1`, the Potency was inconclusive: 20.6 µM [cytotoxic, single point]. In the case of `Cc1ccc(N(Cc2ccc(C(=O)NCCSc3ccccn3)cc2)S(C)(=O)=O)cc1C`, the Potency is reported as active: 20.6 µM. With `Cc1cc(C)cc(N(CC(=O)Nc2cccc(C)c2C)S(=O)(=O)c2c(C)[nH]c(=O)[nH]c2=O)c1` the Potency was inconclusive: 23.1 µM [rising, partial curve, poor fit]. With `CCOc1ccc2nc(N3CCC(C(=O)NC4CCCCC4)CC3)sc2c1` the Potency was inconclusive: 3.26 µM [rising, partial curve, poor fit]. For `COc1ccc(-c2ccc3c(N)c(C(=O)NC(C)C)sc3n2)cc1OC`, the Potency was “inactive”.
